Results reported in PubChem BioAssay AID210 (DTP/NCI, 2004).
The list is a part of this screen's results and no random one: its compounds were picked by chemical class. Not every dose and run of a compound is shown. T/C is the treated group as % of the vehicle group. Where survival is the endpoint, the PubChem record calls one and a half times the control and up active, and a quarter to a half above the control has no call in these data; cut-offs in other NCI protocols can differ. Some entries show no survivor count and are marked so; the dose need not have been tolerated. Schedule codes are those of the source, taken here to give the interval after Q, in days (D) or hours (H), and the number of doses after X.

Tested on: CD2F1 mice, ip Colon 26 adenocarcinoma, median survival T/C
Experiment: NCI In Vivo Anticancer Drug Screen. Data for tumor model Colon 26 Adenocarcinoma (intraperitoneal) in CD2F1 (CDF1) mice
Settings: T/C endpoint: median survival time, schedule: Q04DX003 (ip), vehicle: saline, higher T/C = longer survival
Description: The antitumor activity of compounds was measured in mice bearing transplantable tumors. Survival or tumor size were measured and the results are expressed as the measurement made in the treated group (T) divided by the measurement made in the vehicle treated control group (C). The tumor model used in this assay is Colon 26 Adenocarcinoma (intraperitoneal) in CD2F1 (CDF1) mice

For `CN(CCCl)CCCl`, the T/C (dose: 0.06 mg/kg/injection) was 165 % of control [survivor count not shown], the T/C (dose: 0.12 mg/kg/injection) was 231 % of control [survivor count not shown] and the T/C (dose: 0.25 mg/kg/injection) was 211 % of control [survivor count not shown]. For the same molecule, the T/C (dose: 0.5 mg/kg/injection) was 291 % of control [survivor count not shown] and the T/C (dose: 1.0 mg/kg/injection) was 109 % of control [survivor count not shown].
